Measurements from PubChem BioAssay AID2685 (National Center for Advancing Translational Sciences (NCATS), 2010).
Out of some 320,000 compounds screened, about 2,100 (0.66%) were called active. This list was built around the results that the source calls inconclusive (neither active nor inactive); the mix of calls is not that of the screen. Calls come from the whole dose curve; as a rule, active = well fitted inhibition curve with a large enough effect in the signal ratio, with a control signal flat (not every such curve was filed as active); inconclusive = small, poorly fitted or top-dose-only effect, or effect the other way, or a change in a side signal; inactive = flat fitted curve, though single readings scatter; the % refers to the signal ratio. A potency beside an inconclusive call is a rough fit, not a confirmed value. Where a SMILES comes first, the peptide text is derived from it. [ ]: non-standard residue; d: D form. The star is where a group is joined. Hyp = O=C(O)[CH]1C[CH](O)CN1; Cbz = O=C(OCc1ccccc1)*; OBn = c1ccc(CO*)cc1

assay: qHTS Assay for Lipid Storage Modulators in Drosophila S3 Cells; conditions: BODIPY lipid droplet fluorescence, 18-24 h, cells fed with added oleic acid; lipid storage change, negative = inhibition: at 46.1 µM (top of the series) unless noted
Summary of the method: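 Laser-scanning cytometry quantifies lipid droplet accumulation (500–530 nm total intensity; droplet/cell object ratio) in oleic acid-fed (400 uM added) Drosophila S3 cells treated with a concentration series. 20 uM Triacsin C defined 100% inhibition.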
% is set by controls: 0 for no effect and ±100 for the full control effect; potency is the fitted concentration of half-maximal effect.

Lipid storage change, negative = inhibition, inconclusive:
NC(=O)CC(NC(=O)Cc1cccc2ccccc12)c1ccc(NCc2ccc(F)c(F)c2)c([N+](=O)[O-])c1 (centres undefined) 27.9%, O=C(COC(=O)CSc1ccc2ccccc2c1Br)NC1CC1 -8.59%, CC(C)(C)NC(=O)COC(=O)c1ccc(Cl)c(S(N)(=O)=O)c1 -64.7%, CN(CC1CCCO1)S(=O)(=O)c1ccc(C(=O)Nc2nnc(-c3ccccc3)o2)cc1 (centres undefined) -66.9%, Cc1ccc2c(CC(=O)Nc3ccc(F)c(S(=O)(=O)N4CCOCC4)c3)coc2c1 8.95%, COc1ccccc1CCNC(=O)Nc1cccc([N+](=O)[O-])c1 14%, O=C(NCCO)c1ccc2c3n(nc2c1)-c1ccccc1CO3 8.76%, Cn1c(=O)c2c(nc(SCc3ccc(F)cc3)n2C)n(C)c1=O -11.6%, CCCCN(S(=O)(=O)c1ccccc1)S(=O)(=O)c1ccccc1 12.9%, Cc1ccc(N=Nc2c(C)[nH]n(-c3ccccc3)c2=O)c(C)c1 -2.85%, O=C(NC(=S)Nc1cc(C(F)(F)F)ccc1Cl)c1ccccc1 23.3%, CCn1c(=O)cc(SCC(=O)Nc2ccc3c(c2)OCO3)c2ccccc21 -41.6%, O=S(=O)(c1ccc(Cl)cc1)N1CCN(C2CCN(Cc3ccccc3)CC2)CC1 2.84%, C/C(=N\NC(=O)c1nc2ccccn2c1C)c1ccc2c(c1)OCO2 -35.7%, CC(NC(=O)CNC(=O)OCc1ccccc1)C(=O)N1CC(O)CC1C(=O)OCc1ccccc1 (stereo not drawn) (Cbz-Gly-Ala-[Hyp]-OBn; configuration not given here) -9.19%, CCc1cc2c(=O)oc(-c3ccc(F)cc3)nc2s1 12%, Cc1nn(-c2ccccc2)c(C)c1/C=N/NC(=O)c1cc(-c2cccs2)[nH]n1 1.19%, CC(C)Oc1ccc(C(=O)N2CCCC2C(=O)O)cc1 (centres undefined) -12.1%, O=C(NCC(c1ccco1)N1CCCC1)c1ccc(Cl)c(S(=O)(=O)N2CCc3ccccc32)c1 (centres undefined) -88.8%, COc1cccc(C(=O)NCCS(=O)(=O)N2CCCC2)c1 14.3%, COc1ccc2oc(=O)c(C(=O)NCc3ccc(F)cc3)cc2c1 -36.4%, Cc1cc(C)c2c(NC(=S)NC(=O)c3ccccc3)n[nH]c2n1 28% [at 9.22 µM], COc1ccc(NC(=O)/C=C/C(=O)O)c(OC)c1 0.984%, O=S(=O)(c1ccc(F)cc1)N1CCN=C1SCc1cccc(F)c1 -73.9%, Cc1cccc(NC(=S)N(CCN2CCOCC2)Cc2cc3cc4c(cc3[nH]c2=O)OCO4)c1 -24.5%, O=C(OCC(=O)c1ccc(Cl)s1)c1ccc(CO)cc1 -0.309%, COc1ccc(N(CC(=O)Nc2cccc(C(F)(F)F)c2)S(C)(=O)=O)cc1 -7.5%, COc1ccc(S(=O)(=O)NCCSCc2ccccc2C)cc1Br -73.6%, COc1ccc(C(=O)N(C)C2CCCN(Cc3ccccc3F)C2)cc1C (centres undefined) -39.3%, CCC(=O)c1ccc(OCC(=O)OC(C)C(=O)NCc2ccc3c(c2)OCO3)cc1 (centres undefined), O=C1NC(=NCc2ccccc2)S/C1=C/c1ccc(O)cc1 49.3%, CN1CCN(CC(O)c2ccccc2)CC1 (centres undefined) 21.9%, CCOC(=O)c1c(NC(=O)c2ccccc2)sc2c(O)c(CN(CC)CC)ccc12 3.9%

Lipid storage change, negative = inhibition, inactive:
CC12CCC(c3c(C(=O)O)nn(-c4ccccc4)c31)C2(C)C (centres undefined) -12.8%, CCN=C1S/C(=C/c2ccc(-c3ccc(Cl)cc3C(=O)O)o2)C(=O)N1CC -0.481%

Potency, inconclusive:
Cc1cc(S(=O)(=O)N2CCOCC2)ccc1OCC(=O)Nc1ccc(Br)cc1F 0.82 µM [activator, single point], O=C(NC(=S)NNC(=O)c1ccccc1O)c1cccs1 1.16 µM [activator, partial curve, poor fit], CCN(CC)C(=O)CSc1nnc(CCN)o1 29.1 µM [falling, single point], Cc1ccc(S(=O)(=O)N/N=C/c2ccccc2F)cc1[N+](=O)[O-] 29.1 µM [falling, single point], COc1ccc(CCC(=O)NCCOc2ccc(Cl)cc2)cc1 0.116 µM [falling, full curve, poor fit], CCOC(=O)C1CCN(C(=O)c2cc(S(=O)(=O)N3CCCCC3)ccc2C)CC1 25.9 µM [falling, single point], COc1ccc(OC)c(NC(=O)c2cccc(N3C(=O)C4C5CCC(C5)C4C3=O)c2)c1 (centres undefined) 3.66 µM [falling, partial curve, poor fit], COc1cc(/C=C/C(=O)c2ccc(Cl)s2)cc(OC)c1O 23.1 µM [falling, single point], COc1cc(C(=O)Nc2nnc(SCC(=O)NCC3CCCO3)s2)cc(OC)c1OC (centres undefined) 29.1 µM [falling, single point], COc1ccc(N(CC(=O)Nc2ccc3c(c2)OCO3)S(=O)(=O)c2c(C)nn(C)c2C)cc1 7.31 µM [activator, partial curve], Cc1ccc(Cn2c(SCC(=O)Nc3cc(C)on3)nc3ccccc3c2=O)cc1 0.92 µM [activator, full curve], Cc1ccc(C(=O)CSc2nc(N)cc(=O)[nH]2)cc1C 20.6 µM [falling, single point], c1ccc2[nH]c(-c3ccnc4ccccc34)nc2c1 3.66 µM [activator, full curve], CCn1c2ccccc2c2cc(NC(=O)CSc3nnc(-c4ccc(OC)c(OC)c4)n3N)ccc21 20.6 µM [falling, partial curve]
